# Experimental data from PubChem BioAssay AID504467 (National Center for Advancing Translational Sciences (NCATS), 2011).
# In all, about 330,000 compounds went through this assay and about 7,700 (2.3%) were called active. The inconclusive results got no clear call from the source; some entries with a clear call stand among them for comparison. Calls come from the whole dose curve; as a rule, active = well fitted inhibition curve with a large enough effect; inconclusive = small, poorly fitted or top-dose-only effect, or effect the other way; inactive = flat fitted curve, though single readings scatter. A potency beside an inconclusive call is a rough fit, not a confirmed value.
# Test: qHTS screen for small molecules that inhibit ELG1-dependent DNA repair in human embryonic kidney (HEK293T) cells expressing luciferase-tagged ELG1; note: nearly all actives have a fitted effect of over 55% in size
# Conditions: HEK293T ELG1-luciferase reporter, luminescence, 16 h, DNA damage induced by 5-fluorouridine; series mostly up to 46.1 µM
# In short: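 DMSO vehicle served as the neutral condition. Each well held 2,000 cells given 5-fluorouridine plus compound; after 16 hr at 37 °C/5% CO2, ONE-Glo was added and luciferase measured 30 min later.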
# Potency is the fitted concentration of half-maximal effect.
row,SMILES,Potency
1,COc1cc(/C=C/C(=O)c2ccc([N+](=O)[O-])o2)ccc1O,"inconclusive: 12.6 µM [inhibitor, single point]"
2,Cc1cc2nc(-c3ccc(SCC(=O)Nc4ccc5c(c4)OCCO5)nc3)[nH]c2cc1C,"inconclusive: 2.91 µM [activator, partial curve]"
3,COc1ccc(NS(=O)(=O)c2cc([N+](=O)[O-])ccc2N/N=C\c2c(C)[nH]c3ccccc23)cc1,inactive
4,COc1ccc(C(=O)CNc2ccc(C)cc2C)cc1,"inconclusive: 16.4 µM [activator, partial curve]"
5,COc1ccc(-c2nc(CN3CCN(Cc4cccc(Cl)c4)CC3)c(C)o2)cc1,"inconclusive: 35.5 µM [inhibitor, single point]"
6,O=C(C1CCCN(S(=O)(=O)c2cccc3nsnc23)C1)N1CCc2ccccc21 (stereo not drawn),"inconclusive: 20.6 µM [inhibitor, single point]"
7,CCn1c(C)nc2cc(C(=O)N/N=C/c3ccc(OC)c(O)c3)ccc21,inactive
8,CCOC(=O)C1CCN(C(=O)C2(NC(=O)NC3CCCCC3)CCCCC2)CC1,"inconclusive: 29.1 µM [inhibitor, single point]"
9,Cc1nn(C)c(Cl)c1NC(=O)OCc1ccc(F)cc1,"inconclusive: 7.31 µM [inhibitor, partial curve]"
10,O=C(NCc1cccc(Cl)c1)c1cc(COc2ccc3ncccc3c2)on1,"inconclusive: 7.3 µM [inhibitor, partial curve, poor fit]"
11,O=C(CSc1nc2ccccc2[nH]1)N1CCN(c2ccccc2)CC1,inactive
12,O=[N+]([O-])c1ccc(Oc2ccc(F)cc2Br)c2ccncc12,"inconclusive: 5.8 µM [inhibitor, partial curve]"
13,Clc1ccc(-c2cc(-c3ccccc3)on2)cc1,"inconclusive: 10 µM [activator, partial curve]"
14,O=C(NCc1ccccc1)c1cncc(Br)c1,"inconclusive: 7.31 µM [inhibitor, partial curve, poor fit]"
15,COc1ccc(/C=C2\SC(=O)N(CC(=O)Nc3ccc(F)cc3)C2=O)cc1O,"inconclusive: 8.91 µM [inhibitor, partial curve, poor fit]"
16,OC(COc1ccccc1)CN1CCC(Cc2ccccc2)CC1 (stereo not drawn),inactive
17,COc1ccc(CCn2c(=O)[nH]c3cc(C(=O)NCCCN4CCOCC4)ccc3c2=O)cc1OC,"inconclusive: 29.1 µM [inhibitor, single point]"
18,CC(C)N1CCN(Cc2nc3ccccc3s2)CC1CCO (stereo not drawn),"inconclusive: 23.1 µM [activator, partial curve, poor fit]"
19,O=C(Nc1cccc(Cl)c1)c1cncn1-c1ccc(F)cc1,"inconclusive: 18.3 µM [inhibitor, single point]"
20,COc1ccc(S(N)(=O)=O)cc1C(=O)N(C)CC(=O)Nc1ccc(N2CCOCC2)cc1,"inconclusive: 29.1 µM [activator, single point]"
21,O=C(N/N=C/c1coc2ccccc2c1=O)c1ccccc1Br,"inconclusive: 16.4 µM [inhibitor, partial curve, poor fit]"
22,CCOC(=O)C1(C)Oc2ccccc2C(c2ccc(OC)cc2)=C1C(=O)OC (stereo not drawn),"inconclusive: 16.4 µM [inhibitor, partial curve, poor fit]"
23,CCn1c(N2CCN(S(=O)(=O)c3ccc(F)cc3)CC2)nc2ccccc21,"inconclusive: 29.1 µM [inhibitor, single point]"

# Structures from the list above with a nitro group on carbon (3):
row,SMILES,Potency
1,COc1cc(/C=C/C(=O)c2ccc([N+](=O)[O-])o2)ccc1O,"inconclusive: 12.6 µM [inhibitor, single point]"
3,COc1ccc(NS(=O)(=O)c2cc([N+](=O)[O-])ccc2N/N=C\c2c(C)[nH]c3ccccc23)cc1,inactive
12,O=[N+]([O-])c1ccc(Oc2ccc(F)cc2Br)c2ccncc12,"inconclusive: 5.8 µM [inhibitor, partial curve]"

# 3 compounds from above, sorted by number of heavy atoms, descending.
row,SMILES,Potency
3,COc1ccc(NS(=O)(=O)c2cc([N+](=O)[O-])ccc2N/N=C\c2c(C)[nH]c3ccccc23)cc1,inactive
18,CC(C)N1CCN(Cc2nc3ccccc3s2)CC1CCO (stereo not drawn),"inconclusive: 23.1 µM [activator, partial curve, poor fit]"
4,COc1ccc(C(=O)CNc2ccc(C)cc2C)cc1,"inconclusive: 16.4 µM [activator, partial curve]"

# Additional results follow.

row,SMILES,Potency
1,O=C(COc1ccccc1)Nc1cc(Cl)ccc1Cl,"inconclusive: 14.6 µM [activator, partial curve]"
2,Cc1ccc2c(CN3CCCCC3)cc(=O)oc2c1,"inconclusive: 29.1 µM [activator, single point]"
3,O=C(Cn1c(=S)nc2ccccn21)N1CCc2ccccc2C1,"inconclusive: 20.6 µM [activator, single point]"
4,CCOC(=O)CNC(=O)Cn1cnc2c(nnn2-c2ccccc2)c1=O,inactive
5,Cc1ccc2[nH]c3c(=O)n(CCN4CCOCC4)cnc3c2c1,"inconclusive: 16.4 µM [activator, partial curve]"
6,CCn1nc(C)c(/C=N/NC(=O)c2ccoc2C)c1C,"inconclusive: 17.8 µM [activator, partial curve, poor fit]"
7,CC1C(=O)N2CCCc3cc(NC(=O)C(=O)NCCc4ccc(F)cc4)cc1c32 (stereo not drawn),"inconclusive: 25.9 µM [activator, single point]"
8,Cn1c(=O)c(C(=O)NCc2ccc(F)cc2)c(O)c2ccccc21,inactive
9,COC(=O)N/N=C/c1ccc(-c2ccccc2Cl)o1,"inconclusive: 20.6 µM [activator, partial curve, poor fit]"
10,O=c1c2ccccc2c(C=Nc2ccc(Cl)cn2)c(O)n1-c1cc(Cl)ccc1N1CCOCC1,inactive
11,O=C(CN1C(=O)C2C3C=CC(C3)C2C1=O)Nc1nc(-c2ccccn2)cs1 (stereo not drawn),"inconclusive: 23.1 µM [inhibitor, partial curve]"
12,O=C1C(Nc2ccc(O)cc2)=C/C(=N/S(=O)(=O)c2cccs2)c2ccccc21,active: 6.51 µM
13,CCc1ccc(NS(=O)(=O)c2ccc3[nH]cc(C(=O)NCC4CCCO4)c(=O)c3c2)cc1 (stereo not drawn),"inconclusive: 9.2 µM [activator, partial curve]"
14,COC(=O)C1=C(N)N(c2ccccc2F)C2=C(C(=O)CC(C)(C)C2)C1c1ccc(OC)c(OC)c1 (stereo not drawn),inactive
15,CCC1(c2ccccc2)NC(=O)N(CC(=O)Nc2cccc(S(=O)(=O)N3CCCCC3)c2)C1=O (stereo not drawn),"inconclusive: 29.1 µM [inhibitor, single point]"
16,Cc1ccc(SCc2nc(-c3ccccc3)no2)cc1,inactive
17,CCOc1ccc(OCC)c(S(=O)(=O)N2CCCCC2C)c1 (stereo not drawn),inactive
18,Cc1ccccc1S(=O)(=O)Cc1ccc(C(=O)NC2CCCCC2)o1,inactive
19,O=[N+]([O-])c1ccc(O)c(C(C#Cc2ccccc2)N2CCOCC2)c1 (stereo not drawn),"inconclusive: 23.1 µM [inhibitor, single point]"
20,CC(=O)Nc1ccc2oc(-c3ccccc3Br)nc2c1,"inconclusive: 2.31 µM [activator, full curve]"
21,COc1ccccc1CNC(=O)COC(=O)c1cc(=O)c2ccccc2o1,inactive
22,CN1CCN(c2nc(N3CCN(c4ccccc4)CC3)ncc2F)CC1,"inconclusive: 29.1 µM [inhibitor, partial curve, poor fit]"
23,CCn1c(=S)[nH]c2c(c1=O)C(C)(C)Cc1ccccc1-2,inactive

row,SMILES,Potency
1,Cc1cccc(NC(=O)CN(C)C(=O)c2ccc3ccccc3n2)c1C,"inconclusive: 23.1 µM [activator, partial curve, poor fit]"
2,O=C(Nc1ccc(Cn2nnc3ccccc32)cc1)c1ccco1,inactive
3,O=C(Cn1cnc([N+](=O)[O-])n1)c1ccc(O)c(O)c1,inactive
4,O=C(COC(=O)C1COc2ccccc2O1)Nc1cccc(S(=O)(=O)N2CCCCC2)c1 (stereo not drawn),"inconclusive: 20.6 µM [activator, partial curve, poor fit]"
5,OC(C#Cc1ccccn1)c1cccs1 (stereo not drawn),"inconclusive: 29.1 µM [activator, single point]"
6,O=C(Nc1ccccc1O)c1c(O)c2c([nH]c1=O)CCCC2,"inconclusive: 16.4 µM [activator, partial curve]"
7,COc1ccccc1-c1ccc(=O)n(CC(=O)NCC2CCCO2)n1 (stereo not drawn),inactive
8,Cc1cccc(C)c1NC(=S)N/N=C1\CC2CC=CC12 (stereo not drawn),inactive
9,Cc1ccc(S(=O)(=O)Nc2cccc(C(=O)Nc3cc(C)ccn3)c2)cc1,"inconclusive: 25.9 µM [activator, partial curve, poor fit]"
10,COc1ccc(NC(=O)C2Cc3cccc(OC)c3O/C2=N\O)cc1 (stereo not drawn),inactive
11,N/C(=N\OC(=O)c1cccc(Br)c1)c1ccncc1,"inconclusive: 23.1 µM [activator, partial curve]"
12,CC(C)CN(CC(C)C)C(=O)CN1C(=O)NC2(CCCc3ccccc32)C1=O (stereo not drawn),"inconclusive: 0.0041 µM [activator, full curve, poor fit]"
13,C/C(CC(=O)Nc1ccc2c(c1)OCCO2)=N\NC(=O)c1ccccc1Cl,"inconclusive: 13 µM [activator, partial curve]"
14,CCCC1CCC(=NNC(=O)OC(C)(C)C)CC1 (stereo not drawn),"inconclusive: 20.6 µM [activator, partial curve, poor fit]"
15,CC1CC(C)CN(C(=O)Cn2c(SCC(=O)N3CCc4ccccc4C3)nc3ccccc32)C1 (stereo not drawn),"inconclusive: 18.4 µM [inhibitor, single point]"
16,CCCNc1nc(C)nc2c1cnn2CCc1ccccc1,"inconclusive: 16.4 µM [activator, partial curve]"
17,COc1ccc(-c2cc(C(=O)Nc3cccnc3)c3ccccc3n2)cc1OC,"inconclusive: 3.66 µM [inhibitor, single point]"
18,CC(=O)c1ccc(-c2ccc(C(=O)NCC(c3ccco3)N(C)C)o2)cc1 (stereo not drawn),"inconclusive: 9.2 µM [activator, partial curve]"
19,COc1ccccc1N1CCN(C(=O)c2cccc(S(=O)(=O)Nc3ccccc3F)c2)CC1,"inconclusive: 18.3 µM [inhibitor, single point]"
20,CCOc1cc(/C=C/c2cc(C(=O)O)c3ccccc3n2)ccc1OC,"inconclusive: 18.4 µM [activator, partial curve]"
21,Cc1cc(C)nc(-n2nc(C)cc2NC(=O)C(C)C)n1,inactive
22,Cc1cc(NC(=O)CCN2C(=O)C3C4C=CC(C4)C3C2=O)c2ccccc2n1 (stereo not drawn),"inconclusive: 8.2 µM [inhibitor, partial curve]"
